We go through one compound from patent US20260108572A1, “ALZHEIMER-TYPE DEMENTIA SUPPRESSANT, AND METHOD FOR PRODUCING SAME” (Sakamoto Yakusouen, LLC, priority 2022, published 2026).

For the test, the system named is senescence-accelerated model mouse SAM-P8. As to the kind of experiment: Genome expression (RNA sequencing, PCA) in the whole brain of senescence-accelerated model mice after oral administration. The class given is in vivo. The note with it: oral 7 days: donepezil 5 mg/kg, acteoside 100 mg/kg, SSa extract powder 500 mg/kg, brain after 30 days.

Turning to `COc1cc2c(cc1OC)C(=O)C(CC1CCN(Cc3ccccc3)CC1)C2` (stereo not shown) [donepezil], the “Difference of expression pattern from the control group on PC1 axis (PCA, gene and exon level)” value was “not a large difference”.
